Measured values taken from patent publication US20250152742A1, “COMPOSITIONS AND METHODS FOR NEUROLOGICAL DISEASES” (Trames Bio, Inc., priority 2022, published 2025).

Test system: HEK293T cells
Assay type: cell-based
Conditions: flow cytometry; for Normalized HA %: % HA-tag positive cells normalized to SEQ ID NO: 33 control; for Normalized HA MFI: anti-HA fluorescence intensity normalized to SEQ ID NO: 33 control

Molecule | Normalized HA % | Normalized HA MFI
CODA1053: engineered receptor: R101M, L131A in SEQ ID NO: 33 (protein, synthetic sequence of chimeric LGIC) MRCSPGGVWLALAASLLHVSLQGEFQRKLYKELVKNYNPLERPVANDSQPLTVYFSLSLLQIMDVDEKNQVLTTNIWLQMSWTDHYLQWNVSEYPGVKTVMFPDGQIWKPDILLYNSADERFDATFHTNVAVNSSGHCQYLPPGIFKSSCPMDLKNFPMDVQTCKLKFGSWSYGGWSLDLQMQEADISGYIPNGEWDLVGIPGKRSERFYECCKEPYPDVTFTVTMRRRMGYYLIQMYIPSLLIVILSWISFWINMDAAPARVGLGITTVLTMTTQSSGSRASLPKVSYVKAIDIWMAVCLLFVFSALLEYAAVNFVSRQHKELLRFRRKRRHHKSPMLNLFQEDEAGEGRFNFSAYGMGPACLQAKDGISVKGANNSNTTNPPPAPSKSPEEMRKLFIQRAKKIDKISRIGFPMAFLIFNMFYWIIYKIVRREDVHNQ | 1.31 | 0.97
CODA1054: engineered receptor: R101M, L131F in SEQ ID NO: 33 (protein, synthetic sequence of chimeric LGIC) MRCSPGGVWLALAASLLHVSLQGEFQRKLYKELVKNYNPLERPVANDSQPLTVYFSLSLLQIMDVDEKNQVLTTNIWLQMSWTDHYLQWNVSEYPGVKTVMFPDGQIWKPDILLYNSADERFDATFHTNVFVNSSGHCQYLPPGIFKSSCPMDLKNFPMDVQTCKLKFGSWSYGGWSLDLQMQEADISGYIPNGEWDLVGIPGKRSERFYECCKEPYPDVTFTVTMRRRMGYYLIQMYIPSLLIVILSWISFWINMDAAPARVGLGITTVLTMTTQSSGSRASLPKVSYVKAIDIWMAVCLLFVFSALLEYAAVNFVSRQHKELLRFRRKRRHHKSPMLNLFQEDEAGEGRFNFSAYGMGPACLQAKDGISVKGANNSNTTNPPPAPSKSPEEMRKLFIQRAKKIDKISRIGFPMAFLIFNMFYWIIYKIVRREDVHNQ | 0.96 | 0.88
CODA282: engineered receptor: Y115D in SEQ ID NO: 33 (protein, synthetic sequence of chimeric LGIC) MRCSPGGVWLALAASLLHVSLQGEFQRKLYKELVKNYNPLERPVANDSQPLTVYFSLSLLQIMDVDEKNQVLTTNIWLQMSWTDHYLQWNVSEYPGVKTVRFPDGQIWKPDILLDNSADERFDATFHTNVLVNSSGHCQYLPPGIFKSSCPMDLKNFPMDVQTCKLKFGSWSYGGWSLDLQMQEADISGYIPNGEWDLVGIPGKRSERFYECCKEPYPDVTFTVTMRRRMGYYLIQMYIPSLLIVILSWISFWINMDAAPARVGLGITTVLTMTTQSSGSRASLPKVSYVKAIDIWMAVCLLFVFSALLEYAAVNFVSRQHKELLRFRRKRRHHKSPMLNLFQEDEAGEGRFNFSAYGMGPACLQAKDGISVKGANNSNTTNPPPAPSKSPEEMRKLFIQRAKKIDKISRIGFPMAFLIFNMFYWIIYKIVRREDVHNQ | 0.91 | 0.74
CODA283: engineered receptor: Y115E_N379K in SEQ ID NO: 33 (protein, synthetic sequence of chimeric LGIC) MRCSPGGVWLALAASLLHVSLQGEFQRKLYKELVKNYNPLERPVANDSQPLTVYFSLSLLQIMDVDEKNQVLTTNIWLQMSWTDHYLQWNVSEYPGVKTVRFPDGQIWKPDILLENSADERFDATFHTNVLVNSSGHCQYLPPGIFKSSCPMDLKNFPMDVQTCKLKFGSWSYGGWSLDLQMQEADISGYIPNGEWDLVGIPGKRSERFYECCKEPYPDVTFTVTMRRRMGYYLIQMYIPSLLIVILSWISFWINMDAAPARVGLGITTVLTMTTQSSGSRASLPKVSYVKAIDIWMAVCLLFVFSALLEYAAVNFVSRQHKELLRFRRKRRHHKSPMLNLFQEDEAGEGRFNFSAYGMGPACLQAKDGISVKGANNSKTTNPPPAPSKSPEEMRKLFIQRAKKIDKISRIGFPMAFLIFNMFYWIIYKIVRREDVHNQ | 1.16 | 1.00
CODA333: engineered receptor: L131S in SEQ ID NO: 33 (protein, synthetic sequence of chimeric LGIC) MRCSPGGVWLALAASLLHVSLQGEFQRKLYKELVKNYNPLERPVANDSQPLTVYFSLSLLQIMDVDEKNQVLTTNIWLQMSWTDHYLQWNVSEYPGVKTVRFPDGQIWKPDILLYNSADERFDATFHTNVSVNSSGHCQYLPPGIFKSSCPMDLKNFPMDVQTCKLKFGSWSYGGWSLDLQMQEADISGYIPNGEWDLVGIPGKRSERFYECCKEPYPDVTFTVTMRRRMGYYLIQMYIPSLLIVILSWISFWINMDAAPARVGLGITTVLTMTTQSSGSRASLPKVSYVKAIDIWMAVCLLFVFSALLEYAAVNFVSRQHKELLRFRRKRRHHKSPMLNLFQEDEAGEGRFNFSAYGMGPACLQAKDGISVKGANNSNTTNPPPAPSKSPEEMRKLFIQRAKKIDKISRIGFPMAFLIFNMFYWIIYKIVRREDVHNQ | 1.42 | 0.76
